PubChem BioAssay AID1259308 – NCATS | 2017
Aim: 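Candidate targets for better recombinant protein yield in mammalian cells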 (primary screen). Cell system: human HEK293 embryonic kidney cells stably expressing firefly luciferase (HEK-CMV-Luc2-Hygro). Knock-down reagent: single siRNA against human genes, 0.8 pmol siRNA per well. Timing: 72 h. Measurement: 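Luciferase light (ONE-Glo) measured on one replicate plate set and viability (CellTiter-Glo) on the other, scaled to a negative control siRNA, with robust z-scores and luciferase per cell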. Scale: total luciferase, z-score and total luciferase, % of control: higher = more reporter protein produced; luciferase per cell, z-score: higher = more reporter output per viable cell; viable cells, % of control: higher = more viable cells. Rule for the call: 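An siRNA counts as active if its total luciferase robust z-score exceeds 3; genes with two or more such siRNAs out of three were retested with fresh siRNAs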. Calls: active = raised luciferase; inactive = no rise.
The deposit covers about 59,000 reagents; below is a random part of them. About 1,510 of all reagents (2.6%) count as active. 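Calls use total luciferase alone and ignore viability, so some active siRNAs may act by altering cell number.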 Reagents against one gene are numbered here.

no.	Target gene	reagent	total luciferase, z-score	total luciferase, % of control	luciferase per cell, z-score	viable cells, % of control	call
1	RPA4	1	2.5	132	2.52	75.7	inactive
2	RPA4	2	-0.514	71.7	-0.833	99.7	inactive
3	RPA4	3	-0.815	65.7	-1.5	109	inactive
4	BAALC	1	0.569	93.2	0.429	93	inactive
5	BAALC	2	0.164	85.1	0.133	91.9	inactive
6	BAALC	3	0.442	90.7	-0.769	124	inactive
7	SRRM2	1	1.37	109	2.1	70.2	inactive
8	SRRM2	2	2.99	141	4.17	52.7	inactive
9	SRRM2	3	-0.307	75.8	0.885	67.1	inactive
10	LINC02453	1	-1.59	50.3	-0.723	68	inactive
11	LINC02453	2	-0.89	64.2	0.157	68.8	inactive
12	LINC02453	3	2.16	125	2.36	75	inactive
13	CRYBB3	1	0.392	89.7	0.135	96.7	inactive
14	CRYBB3	2	-0.728	67.4	1.29	53.6	inactive
15	CRYBB3	3	-0.241	77.1	-0.401	95.7	inactive
16	EFEMP2	1	-1.38	54.5	-1.67	94.6	inactive
17	EFEMP2	2	-0.881	64.4	-1.1	96.1	inactive
18	EFEMP2	3	-1.72	47.6	-2.37	99.4	inactive
19	LRMDA	1	0.711	96	0.578	92.2	inactive
20	LRMDA	2	0.578	93.4	0.475	92.1	inactive
21	LRMDA	3	0.711	96	0.954	83.5	inactive

Continued (2 carried over from the part before).
no.	Target gene	reagent	total luciferase, z-score	total luciferase, % of control	luciferase per cell, z-score	viable cells, % of control	call
20	LRMDA	2	0.578	93.4	0.475	92.1	inactive
21	LRMDA	3	0.711	96	0.954	83.5	inactive
22	RPGR	1	0.381	89.5	0.364	90.9	inactive
23	RPGR	2	0.696	95.7	0.694	89.1	inactive
24	RPGR	3	-0.557	70.8	-0.604	92.8	inactive
25	ARIH2OS	1	-0.137	79.2	-0.467	100	inactive
26	ARIH2OS	2	-0.301	75.9	-0.5	96.7	inactive
27	ARIH2OS	3	-0.113	79.6	0.0448	88	inactive
28	LGALS9B	1	-1.78	46.6	-0.971	67.2	inactive
29	LGALS9B	2	-2.03	41.6	-0.837	57.9	inactive
30	LGALS9B	3	0.606	93.9	0.534	91.2	inactive
31	TESMIN	1	3.73	156	2.64	87	active
32	TESMIN	2	-1.51	51.9	-1.31	81.8	inactive
33	TESMIN	3	-1.31	55.8	-1.56	94.1	inactive
34	CHCHD2	1	0.406	90	-0.284	108	inactive
35	CHCHD2	2	0.793	97.7	0.0519	108	inactive
36	CHCHD2	3	-2.86	25.1	-4.23	85.4	inactive
37	CXCL10	1	0.301	87.9	-0.374	108	inactive
38	CXCL10	2	1.44	111	1.28	88.1	inactive
39	CXCL10	3	1.75	117	1.71	83.1	inactive
